{
  "source": "paper PMC8750630",
  "about": "“Novel Molecular Targets for Hepatocellular Carcinoma” (Cancers, 2021)",
  "origin": "cited, not measured here",
  "settings": "interrogation of database, Table S6; ref HLA Ligand Atlas; cited from earlier work",
  "data": [
    {"sequence": "RQYSVGFEV", "values": [
      {"measurement": "HLA Classes (identification by mass spectrometry in normal tissues)", "result": "no match"}
    ]},
    {"sequence": "IYTVSSFSI", "values": [
      {"measurement": "HLA Classes (identification by mass spectrometry in normal tissues)", "result": "no match"}
    ]},
    {"sequence": "KITEYLERV", "values": [
      {"measurement": "HLA Classes (identification by mass spectrometry in normal tissues)", "result": "HLA-1"}
    ]},
    {"sequence": "LYHAGTVLL", "values": [
      {"measurement": "HLA Classes (identification by mass spectrometry in normal tissues)", "result": "no match"}
    ]},
    {"sequence": "YYDVIYLSW", "values": [
      {"measurement": "HLA Classes (identification by mass spectrometry in normal tissues)", "result": "no match"}
    ]},
    {"sequence": "VYTYIQSRF", "values": [
      {"measurement": "HLA Classes (identification by mass spectrometry in normal tissues)", "result": "HLA-1"}
    ]},
    {"sequence": "LYACGTGAF", "values": [
      {"measurement": "HLA Classes (identification by mass spectrometry in normal tissues)", "result": "no match"}
    ]},
    {"sequence": "ALFGALFLA", "values": [
      {"measurement": "HLA Classes (identification by mass spectrometry in normal tissues)", "result": "HLA-1"}
    ]},
    {"sequence": "RIVCLFWGV", "values": [
      {"measurement": "HLA Classes (identification by mass spectrometry in normal tissues)", "result": "no match"}
    ]},
    {"sequence": "MVMSFVNLV", "values": [
      {"measurement": "HLA Classes (identification by mass spectrometry in normal tissues)", "result": "no match"}
    ]},
    {"sequence": "FQFSASLHV", "values": [
      {"measurement": "HLA Classes (identification by mass spectrometry in normal tissues)", "result": "no match"}
    ]},
    {"sequence": "VHMKDFFYF", "values": [
      {"measurement": "HLA Classes (identification by mass spectrometry in normal tissues)", "result": "no match"}
    ]},
    {"sequence": "TYFGSIVLL", "values": [
      {"measurement": "HLA Classes (identification by mass spectrometry in normal tissues)", "result": "no match"}
    ]},
    {"sequence": "FLISIYQVL", "values": [
      {"measurement": "HLA Classes (identification by mass spectrometry in normal tissues)", "result": "no match"}
    ]},
    {"sequence": "FMLDLYNAL", "values": [
      {"measurement": "HLA Classes (identification by mass spectrometry in normal tissues)", "result": "no match"}
    ]},
    {"sequence": "TLLKVTLEV", "values": [
      {"measurement": "HLA Classes (identification by mass spectrometry in normal tissues)", "result": "no match"}
    ]},
    {"sequence": "TMLNILALV", "values": [
      {"measurement": "HLA Classes (identification by mass spectrometry in normal tissues)", "result": "no match"}
    ]},
    {"sequence": "LLNQQICPV", "values": [
      {"measurement": "HLA Classes (identification by mass spectrometry in normal tissues)", "result": "no match"}
    ]},
    {"sequence": "YYYQRALEI", "values": [
      {"measurement": "HLA Classes (identification by mass spectrometry in normal tissues)", "result": "no match"}
    ]},
    {"sequence": "ALSNHLNAV", "values": [
      {"measurement": "HLA Classes (identification by mass spectrometry in normal tissues)", "result": "HLA-1"}
    ]},
    {"sequence": "IFNIIPSTF", "values": [
      {"measurement": "HLA Classes (identification by mass spectrometry in normal tissues)", "result": "no match"}
    ]},
    {"sequence": "MLAGNEFQV", "values": [
      {"measurement": "HLA Classes (identification by mass spectrometry in normal tissues)", "result": "no match"}
    ]},
    {"sequence": "LYSGTAADF", "values": [
      {"measurement": "HLA Classes (identification by mass spectrometry in normal tissues)", "result": "no match"}
    ]},
    {"sequence": "LLNSLLDTV", "values": [
      {"measurement": "HLA Classes (identification by mass spectrometry in normal tissues)", "result": "no match"}
    ]},
    {"sequence": "FYFRNHFCI", "values": [
      {"measurement": "HLA Classes (identification by mass spectrometry in normal tissues)", "result": "no match"}
    ]},
    {"sequence": "VYSACSFTF", "values": [
      {"measurement": "HLA Classes (identification by mass spectrometry in normal tissues)", "result": "no match"}
    ]},
    {"sequence": "VYVAFSEFF", "values": [
      {"measurement": "HLA Classes (identification by mass spectrometry in normal tissues)", "result": "no match"}
    ]},
    {"sequence": "ALLALTSAV", "values": [
      {"measurement": "HLA Classes (identification by mass spectrometry in normal tissues)", "result": "no match"}
    ]}
  ]
}
